Source: patent EP4729529A1 (Xizang Haisco Pharmaceutical Co., Ltd., priority 2023, dated 2024)
Some peptides are written in HELM: one residue between dots, names in brackets for other building blocks, links after the first $.

What was measured:
[1] = general procedure: Fmoc solid-phase peptide synthesis; Rink Amide MBHA Resin (sub: 0.7 mmol/g)
[2] = general procedure: Fmoc solid-phase peptide synthesis; Rink Amide MBHA Resin; conditions: whole synthesis, scale 1 mmol
[3] = whole synthesis, scale of the general procedure 1 mmol

Substance	final purity (method not given) [1, 3] [%]	crude mass [2] [g]	final purity (method not given) ([1]; oxidative folding step) [%]
PEPTIDE1{[C18DA].[gGlu].[AEEA].[AEEA].[Pen].H.T.[Int6].Q.[Pen].[Int3].[2Nal].[Int5].E.N.[3Pal].[Sar].[am]}$PEPTIDE1,PEPTIDE1,5:R3-10:R3$$$V2.0	96		
PEPTIDE1{[ac].[Pcn].H.T.[Int6].Q.[Pen].[Int3].[2Nal].[Int5].E.N.[3Pal].[Sar].[am]}$PEPTIDE1,PEPTIDE1,2:R3-7:R3$$$V2.0	96		
PEPTIDE1{[ac].[Pen].H.T.[Int6].K.[Pen].[Int3].[2Nal].[Int5].E.N.[3Pal].[Sar].[am]}|PEPTIDE2{[C18DA].[gGlu].[AEEA].[AEEA]}$PEPTIDE1,PEPTIDE1,2:R3-7:R3|PEPTIDE1,PEPTIDE2,6:R3-4:R2$$$V2.0	97		
PEPTIDE1{[ac].[Pen].H.T.[Int6].Q.[Pen].[Int3].[2Nal].[Int5].E.N.[3Pal].[Sar].[am]}$PEPTIDE1,PEPTIDE1,2:R3-7:R3$$$V2.0	94		
PEPTIDE1{[ac].C.H.T.[7MeTrp].Q.C.[Int3].[2Nal].[Int5].C.N.[3Pal].[Sar].[am]}|CHEM1{[TMT]}$PEPTIDE1,CHEM1,2:R3-1:R1|PEPTIDE1,CHEM1,7:R3-1:R2|PEPTIDE1,CHEM1,11:R3-1:R3$$$V2.0	97		
PEPTIDE1{[AEEA].[Pen].H.T.[7MeTrp].[LysAc].[Pen].[AEF].[2Nal].[Thp].E.N.[3Pal].[Sar].[am]}$PEPTIDE1,PEPTIDE1,2:R3-7:R3|PEPTIDE1,PEPTIDE1,1:R1-11:R3$$$V2.0	99		
PEPTIDE1{[ac].[Pen].N.T.[7MeTrp].[LysAc].[Pen].[AEF].[2Nal].[Int5].E.N.[3Pal].[Sar].[am]}$PEPTIDE1,PEPTIDE1,2:R3-7:R3$$$V2.0	97		
PEPTIDE1{[ac].D.H.T.[7MeTrp].Q.[Dab].[AEF].[2Nal].[Thp].E.N.[3Pal].[Sar].[am]}$PEPTIDE1,PEPTIDE1,2:R3-7:R3$$$V2.0	87		
PEPTIDE1{[ac].[Pen].H.T.[7MeTrp].Q.[Pen].[Int3].[2Nal].[Int5].E.N.[3Pal].[Sar].[am]}$PEPTIDE1,PEPTIDE1,2:R3-7:R3$$$V2.0	98		
PEPTIDE1{[PEG4Ac].[Pen].H.T.[7MeTrp].[LysAc].[Pen].[AEF].[2Nal].[Thp].E.N.[3Pal].[Sar].[am]}$PEPTIDE1,PEPTIDE1,2:R3-7:R3|PEPTIDE1,PEPTIDE1,1:R1-11:R3$$$V2.0	99		
PEPTIDE1{[ac].[Pen].H.T.[7MeTrp].Q.[Pen].[AEF].[2Nal].[Thp].E.N.[3Pal].[Sar].[am]}$PEPTIDE1,PEPTIDE1,2:R3-7:R3$$$V2.0		2.4	99
PEPTIDE1{[ac].[Dap].H.T.[7MeTrp].Q.[Dap].[AEF].[2Nal].[Thp].E.N.[3Pal].[Sar].[am]}|CHEM1{[CO]}$PEPTIDE1,CHEM1,2:R3-1:R1|PEPTIDE1,CHEM1,7:R3-1:R2$$$V2.0	95		
PEPTIDE1{[ac].[Pen].H.T.[Int6].Q.[Pen].[AEF].[2Nal].[Thp].E.N.[3Pal].[Sar].[am]}$PEPTIDE1,PEPTIDE1,2:R3-7:R3$$$V2.0	98		
PEPTIDE1{[AEP].[Pen].H.T.[7MeTrp].[LysAc].[Pen].[AEF].[2Nal].[Thp].E.N.[3Pal].[Sar].[am]}$PEPTIDE1,PEPTIDE1,2:R3-7:R3|PEPTIDE1,PEPTIDE1,1:R1-11:R3$$$V2.0	95		
PEPTIDE1{[ac].[Pen].H.T.[7MeTrp].[Cit].[Pen].[AEF].[2Nal].[Thp].E.N.[3Pal].[Sar].[am]}$PEPTIDE1,PEPTIDE1,2:R3-7:R3$$$V2.0		2.5	99
PEPTIDE1{[mPEG5Ac].[Pen].H.T.[Int6].Q.[Pen].[Int3].[2Nal].[Int5].E.N.[3Pal].[Sar].[am]}$PEPTIDE1,PEPTIDE1,2:R3-7:R3$$$V2.0	94		
PEPTIDE1{[ac].[Pen].H.T.[Int6].K.[Pen].[Int3].[2Nal].[Int5].E.N.[3Pal].[Sar].[am]}|PEPTIDE2{[ac].[gGlu].[AEEA].[AEEA]}$PEPTIDE1,PEPTIDE1,2:R3-7:R3|PEPTIDE1,PEPTIDE2,6:R3-4:R2$$$V2.0	95		
PEPTIDE1{[ac].[Pen].H.T.[7MeTrp].[LysAc].[Pen].[Int3].[2Nal].[Thp].E.N.[3Pal].[Sar].[am]}$PEPTIDE1,PEPTIDE1,2:R3-7:R3$$$V2.0		2.2	98
PEPTIDE1{[ac].[Pen].H.T.[Int6].[Cit].[Pen].[AEF].[2Nal].[Thp].E.N.[3Pal].[Sar].[am]}$PEPTIDE1,PEPTIDE1,2:R3-7:R3$$$V2.0	98		
PEPTIDE1{[ac].[Pen].H.T.[7MeTrp].[LysAc].[Pen].[AEF].[2Nal].[Thp].E.N.[3Pal].[Sar].[am]}$PEPTIDE1,PEPTIDE1,2:R3-7:R3$$$V2.0	95		
PEPTIDE1{[mPEG12Ac].[Pen].H.T.[Int6].Q.[Pen].[Int3].[2Nal].[Int5].E.N.[3Pal].[Sar].[am]}$PEPTIDE1,PEPTIDE1,2:R3-7:R3$$$V2.0	92		
PEPTIDE1{[Ahx].[Pen].H.T.[7MeTrp].[LysAc].[Pen].[AEF].[2Nal].[Thp].E.N.[3Pal].[Sar].[am]}$PEPTIDE1,PEPTIDE1,2:R3-7:R3|PEPTIDE1,PEPTIDE1,1:R1-11:R3$$$V2.0			99
PEPTIDE1{[mPEG9Ac].[Pen].H.T.[Int6].Q.[Pen].[Int3].[2Nal].[Int5].E.N.[3Pal].[Sar].[am]}$PEPTIDE1,PEPTIDE1,2:R3-7:R3$$$V2.0	97		
